Reference: PubChem BioAssay AID330 (DTP/NCI, 2004)
The list shows only some results of the screen, not a fair sample: it gathers tests that were run many times, whatever their T/C, doses with no T/C, and many T/C values between a quarter and a half above the control. Further doses and runs are listed elsewhere. T/C gives the treated animals as a percentage of the vehicle group. Some entries give survivors of the animals treated and no T/C: the source files T/C as zero there, which appears to mark a toxic dose or a test without result, not a measured value. Some survivor counts are full or nearly so, which does not show that the dose was tolerated: survival well below the control is almost never listed, so the zero probably covers shortened survival too. Survivors were counted at the toxicity check, usually on the fifth day, unless a day is given; later deaths do not show. Schedules are NCI's codes, read here as Q, the interval in days (D) or hours (H), X, the number of doses. Some doses were run more than once; the results are listed from low to high. Where survival is the endpoint, the PubChem record calls one and a half times the control and up active, and a quarter to a half above the control has no call in these data; cut-offs in other NCI protocols can differ.

System: P388 leukemia ip, CD2F1 mice, survival T/C
Experiment: NCI In Vivo Anticancer Drug Screen. Data for tumor model P388 Leukemia (intraperitoneal) in CD2F1 (CDF1) mice
Details: T/C endpoint: median survival time, higher T/C = longer survival
[1] = dose: 400.0 mg/kg/injection, schedule: Q04DX003 (ip), vehicle: Klucel (hydroxypropylcellulose) (HPC)
[2] = dose: 200.0 mg/kg/injection, schedule: Q01DX009 (ip), vehicle: saline with Tween-80
[3] = dose: 200.0 mg/kg/injection, schedule: Q01DX005 (ip), vehicle: saline with Tween-80

`O=NN(CCCl)C(=O)Oc1c(Cl)cc(Cl)cc1Cl` was tested, and the T/C (dose: 12.5 mg/kg/injection, schedule: Q01DX001 (ip), vehicle: saline with Tween-80) was 141 % of control, the T/C (dose: 25.0 mg/kg/injection, schedule: Q01DX001 (ip), vehicle: saline with Tween-80) was 146 % of control and the survivor count (dose: 100.0 mg/kg/injection, schedule: Q01DX001 (ip), vehicle: saline with Tween-80) was 3 of 5 and 5 of 5. For the same molecule, the survivor count (dose: 150.0 mg/kg/injection, schedule: Q01DX001 (ip), vehicle: saline with Tween-80) was 2 of 5, the survivor count (dose: 200.0 mg/kg/injection, schedule: Q01DX001 (ip), vehicle: saline with Tween-80) was 0 of 5 and the survivor count (dose: 400.0 mg/kg/injection, schedule: Q01DX001 (ip), vehicle: saline with Tween-80) was 0 of 5.
`Cc1coc2c1C[C@@]1(C)[C@H](C2)C(=O)CC[C@@H]1C` was tested, and the survivor count (dose: 75.0 mg/kg/injection, schedule: Q01DX009 (ip), vehicle: Klucel (hydroxypropylcellulose) (HPC)) was 1 of 6 and the survivor count (dose: 150.0 mg/kg/injection, schedule: Q01DX009 (ip), vehicle: Klucel (hydroxypropylcellulose) (HPC)) was 0 of 6.
In the case of `CC1=C(C(=O)Nc2ccccc2Cl)C(c2cccc([N+](=O)[O-])c2)C(C(=O)Nc2ccccc2Cl)=C(C)N1`, the survivor count (dose: 120.0 mg/kg/injection, schedule: Q01DX005 (ip), vehicle: Klucel (hydroxypropylcellulose) (HPC)) is reported as 6 of 6 and the survivor count (dose: 240.0 mg/kg/injection, schedule: Q01DX005 (ip), vehicle: Klucel (hydroxypropylcellulose) (HPC)) is reported as 4 of 6.
`Cc1ccc(S(=O)(=O)C(CC(=O)CCN2CCCCC2)c2ccccc2)cc1` (stereo not drawn) was tested, and the survivor count (dose: 200.0 mg/kg/injection, schedule: Q01DX009 (ip), vehicle: saline) was 3 of 6.
`O=C1NC(=O)NC(C(=O)O)N1` was tested, and the survivor count (dose: 400.0 mg/kg/injection, schedule: Q01DX009 (ip), vehicle: Klucel (hydroxypropylcellulose) (HPC)) was 1 of 6.
In the case of `Cn1nc(-c2ccc(Cl)cc2)[n+]([O-])c2c(=O)n(C)c(=O)nc1-2`, the survivor count (dose: 6.25 mg/kg/injection, schedule: Q04DX003 (ip), vehicle: Klucel (hydroxypropylcellulose) (HPC)) is reported as 0 of 6, the survivor count (dose: 12.5 mg/kg/injection, schedule: Q04DX003 (ip), vehicle: Klucel (hydroxypropylcellulose) (HPC)) is reported as 0 of 6 and the survivor count (dose: 25.0 mg/kg/injection, schedule: Q04DX003 (ip), vehicle: Klucel (hydroxypropylcellulose) (HPC)) is reported as 0 of 6. For the same molecule, the survivor count (dose: 50.0 mg/kg/injection, schedule: Q04DX003 (ip), vehicle: Klucel (hydroxypropylcellulose) (HPC)) was 0 of 6, the survivor count (dose: 100.0 mg/kg/injection, schedule: Q04DX003 (ip), vehicle: Klucel (hydroxypropylcellulose) (HPC)) was 0 of 6 and the survivor count (dose: 200.0 mg/kg/injection, schedule: Q04DX003 (ip), vehicle: Klucel (hydroxypropylcellulose) (HPC)) was 0 of 6. The survivor count [1] was 0 of 6.
`COC(=O)CNP(=O)(NCC(=O)OC)N(CCCl)CCCl` was tested, and the T/C (dose: 60.0 mg/kg/injection, schedule: Q01DX005 (ip), vehicle: saline) was 130 % of control.
`CCC[CH2][Sn]([CH2]CCC)([CH2]CCC)[S]C(=S)NCCNC(=S)[S][Sn]([CH2]CCC)([CH2]CCC)[CH2]CCC` was tested, and the survivor count (dose: 12.5 mg/kg/injection, schedule: Q01DX010 (ip), vehicle: saline) was 4 of 7, the survivor count (dose: 25.0 mg/kg/injection, schedule: Q01DX010 (ip), vehicle: saline) was 0 of 7 and the survivor count (dose: 50.0 mg/kg/injection, schedule: Q01DX010 (ip), vehicle: saline) was 0 of 7.
In the case of `O=CNC(Cc1cccc(N(CCCl)CCCl)c1)C(=O)O` (stereo not drawn), the survivor count (dose: 50.0 mg/kg/injection, schedule: Q01DX009 (ip), vehicle: saline sonified) is reported as 6 of 6 and the survivor count (dose: 100.0 mg/kg/injection, schedule: Q01DX009 (ip), vehicle: saline sonified) is reported as 3 of 6.
`CN1CCCC(O)(C(=O)c2ccccc2)C1` (stereo not drawn) was tested, and the survivor count [1] was 2 of 6.
`CC(C)(C=O)COC1OCN(C(C)(C)C)CC1(C)C` (stereo not drawn) was tested, and the T/C [2] was 131 % of control.
For `C=C(C[P+](c1ccccc1)(c1ccccc1)c1ccccc1)C(=O)OCC`, the survivor count (dose: 25.0 mg/kg/injection, schedule: Q01DX001 (ip), vehicle: suspension in saline) was 4 of 5, the survivor count (dose: 50.0 mg/kg/injection, schedule: Q01DX001 (ip), vehicle: suspension in saline) was 1 of 5 and the survivor count (dose: 100.0 mg/kg/injection, schedule: Q01DX001 (ip), vehicle: saline) was 0 of 5. For the same molecule, the survivor count (dose: 200.0 mg/kg/injection, schedule: Q01DX001 (ip), vehicle: saline) was 0 of 5 and the survivor count (dose: 400.0 mg/kg/injection, schedule: Q01DX001 (ip), vehicle: saline) was 0 of 5.
`CCOC(=O)N[C@H]1CCc2cc(OC)c(OC)c(OC)c2-c2ccc(SC)c(=O)cc21` was tested, and the T/C (dose: 0.38 mg/kg/injection, schedule: Q01DX009 (ip), vehicle: other) was 147 % of control, the T/C (dose: 0.38 mg/kg/injection, schedule: Q01DX009 (ip), vehicle: saline with Tween-80) was 130 % of control and the T/C (dose: 0.75 mg/kg/injection, schedule: Q01DX009 (ip), vehicle: saline with Tween-80) was 130 % of control. For the same molecule, the T/C (dose: 1.5 mg/kg/injection, schedule: Q01DX009 (ip), vehicle: other) was 145 % of control, the T/C (dose: 1.5 mg/kg/injection, schedule: Q01DX009 (ip), vehicle: saline with Tween-80) was 139 % of control and the T/C (dose: 3.0 mg/kg/injection, schedule: Q01DX009 (ip), vehicle: saline with Tween-80) was 130 % of control. The survivor count (dose: 6.0 mg/kg/injection, schedule: Q01DX009 (ip), vehicle: other) was 5 of 6, the survivor count (dose: 12.0 mg/kg/injection, schedule: Q01DX009 (ip), vehicle: other) was 5 of 6 and the survivor count (dose: 24.0 mg/kg/injection, schedule: Q01DX009 (ip), vehicle: other) was 4 of 6.
`CC[N+](C)(CC)CCNc1cc2c(c3c(=O)c4ccccc4sc13)CCCC2` was tested, and the survivor count (dose: 200.0 mg/kg/injection, schedule: Q01DX005 (ip), vehicle: distilled water + Tween-80) was 2 of 6.
For `CC(=O)Nc1cc2cccnc2sc1=O`, the survivor count (dose: 50.0 mg/kg/injection, schedule: Q01DX005 (ip), vehicle: Klucel (hydroxypropylcellulose) (HPC)) was 6 of 6.
For `CNC(=O)OCc1c(COC(=O)NC)c(-c2ccccc2)n(-c2ccccc2)c1C`, the survivor count (dose: 100.0 mg/kg/injection, schedule: Q01DX005 (ip), vehicle: saline with Tween-80) was 6 of 6 and the survivor count [3] was 4 of 6.
In the case of `CSC(Cl)=NC(=O)C(=O)N=C(Cl)SC`, the survivor count [2] is reported as 5 of 6.
`CC1=CC(C)(C)NC(=S)N1c1cccc(Cl)c1` was tested, and the survivor count (dose: 12.5 mg/kg/injection, schedule: Q01DX009 (ip), vehicle: saline with Tween-80) was 6 of 6, the survivor count (dose: 25.0 mg/kg/injection, schedule: Q01DX009 (ip), vehicle: saline with Tween-80) was 6 of 6 and the survivor count (dose: 50.0 mg/kg/injection, schedule: Q01DX009 (ip), vehicle: saline with Tween-80) was 6 of 6.
For `CC1CCC(C(C)C)C(NC(=O)C[n+]2cccc(C(N)=O)c2)C1` (stereo not drawn), the survivor count (dose: 100.0 mg/kg/injection, schedule: Q04DX002 (ip), vehicle: saline with Tween-80) was 3 of 6, the survivor count (dose: 200.0 mg/kg/injection, schedule: Q04DX002 (ip), vehicle: saline with Tween-80) was 0 of 6 and the survivor count (dose: 400.0 mg/kg/injection, schedule: Q04DX002 (ip), vehicle: saline with Tween-80) was 0 of 6.
In the case of `O=NNc1ncc(Br)cc1Br`, the T/C (dose: 12.5 mg/kg/injection, schedule: Q01DX009 (ip), vehicle: water) is reported as 147 % of control, the T/C (dose: 25.0 mg/kg/injection, schedule: Q01DX005 (ip), vehicle: water) is reported as 128, 129, 147 % of control and the T/C (dose: 25.0 mg/kg/injection, schedule: Q01DX009 (ip), vehicle: water) is reported as 144 % of control. For the same molecule, the T/C (dose: 50.0 mg/kg/injection, schedule: Q01DX005 (ip), vehicle: water) was 144 % of control, the T/C (dose: 50.0 mg/kg/injection, schedule: Q01DX009 (ip), vehicle: water) was 142 % of control and the survivor count (dose: 200.0 mg/kg/injection, schedule: Q01DX005 (ip), vehicle: water) was 5 of 6 and 6 of 6. For the same molecule, the survivor count (dose: 400.0 mg/kg/injection, schedule: Q01DX005 (ip), vehicle: water) was 0 of 6.
For `CCCCCCC(=O)c1c(O)c2ccccc2oc1=O`, the survivor count (dose: 240.0 mg/kg/injection, schedule: Q01DX005 (ip), vehicle: saline with Tween-80) was 1 of 6.
`CCC(C)C(NC(=O)C(C)Oc1cc(Cl)c(Cl)cc1Cl)C(=O)O` (stereo not drawn) was tested, and the survivor count [3] was 0 of 5.
`O=C1NC(=O)N(c2ccc([N+](=O)[O-])cc2)C1=O` was tested, and the survivor count (dose: 50.0 mg/kg/injection, schedule: Q01DX009 (ip), vehicle: Klucel (hydroxypropylcellulose) (HPC)) was 6 of 6 and the survivor count (dose: 100.0 mg/kg/injection, schedule: Q01DX009 (ip), vehicle: Klucel (hydroxypropylcellulose) (HPC)) was 6 of 6.
